Data reported in the supplement of paper PMC10849652.
The list shows a part of the results.

The chains behind the UniProt entries cited, without tags or fusion partners. Where a name states a change or a piece, a line headed by the entry shows the natural chain unless it says otherwise.
UniProt P52655, whole entry, looked up: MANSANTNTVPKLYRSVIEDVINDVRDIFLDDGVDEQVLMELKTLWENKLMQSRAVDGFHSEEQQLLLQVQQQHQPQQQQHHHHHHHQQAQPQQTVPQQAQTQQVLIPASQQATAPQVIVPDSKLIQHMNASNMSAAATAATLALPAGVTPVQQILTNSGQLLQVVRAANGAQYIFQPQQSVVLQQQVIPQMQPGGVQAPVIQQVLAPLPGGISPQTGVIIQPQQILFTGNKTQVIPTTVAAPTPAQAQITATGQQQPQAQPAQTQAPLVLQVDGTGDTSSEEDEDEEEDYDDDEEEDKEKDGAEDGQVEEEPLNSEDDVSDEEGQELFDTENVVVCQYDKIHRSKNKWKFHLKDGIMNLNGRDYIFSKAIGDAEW
UniProt P30711: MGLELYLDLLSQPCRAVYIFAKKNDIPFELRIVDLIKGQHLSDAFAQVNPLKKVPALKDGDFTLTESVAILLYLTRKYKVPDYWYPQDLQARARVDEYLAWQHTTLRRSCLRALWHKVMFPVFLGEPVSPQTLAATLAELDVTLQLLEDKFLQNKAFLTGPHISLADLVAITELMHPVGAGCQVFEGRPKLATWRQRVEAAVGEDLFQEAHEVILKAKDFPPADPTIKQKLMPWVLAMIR
UniProt Q9NYZ3: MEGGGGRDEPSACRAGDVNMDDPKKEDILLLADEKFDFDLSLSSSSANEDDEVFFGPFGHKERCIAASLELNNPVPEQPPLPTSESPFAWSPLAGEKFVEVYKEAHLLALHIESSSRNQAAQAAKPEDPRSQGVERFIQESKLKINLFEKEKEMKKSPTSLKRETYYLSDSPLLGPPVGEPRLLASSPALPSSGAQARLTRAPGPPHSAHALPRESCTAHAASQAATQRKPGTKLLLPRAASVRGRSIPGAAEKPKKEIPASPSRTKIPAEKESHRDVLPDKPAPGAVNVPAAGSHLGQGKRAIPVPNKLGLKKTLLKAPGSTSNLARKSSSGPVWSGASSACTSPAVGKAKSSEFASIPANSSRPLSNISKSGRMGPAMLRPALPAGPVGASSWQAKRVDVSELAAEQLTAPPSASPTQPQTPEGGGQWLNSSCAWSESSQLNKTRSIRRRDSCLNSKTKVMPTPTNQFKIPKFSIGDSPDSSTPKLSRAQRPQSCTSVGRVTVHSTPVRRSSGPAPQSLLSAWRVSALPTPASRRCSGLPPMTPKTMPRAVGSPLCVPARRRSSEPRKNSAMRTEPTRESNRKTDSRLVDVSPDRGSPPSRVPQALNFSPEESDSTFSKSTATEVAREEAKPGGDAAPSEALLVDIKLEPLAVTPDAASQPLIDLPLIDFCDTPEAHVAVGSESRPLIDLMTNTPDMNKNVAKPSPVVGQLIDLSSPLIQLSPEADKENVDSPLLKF
UniProt Q4V328: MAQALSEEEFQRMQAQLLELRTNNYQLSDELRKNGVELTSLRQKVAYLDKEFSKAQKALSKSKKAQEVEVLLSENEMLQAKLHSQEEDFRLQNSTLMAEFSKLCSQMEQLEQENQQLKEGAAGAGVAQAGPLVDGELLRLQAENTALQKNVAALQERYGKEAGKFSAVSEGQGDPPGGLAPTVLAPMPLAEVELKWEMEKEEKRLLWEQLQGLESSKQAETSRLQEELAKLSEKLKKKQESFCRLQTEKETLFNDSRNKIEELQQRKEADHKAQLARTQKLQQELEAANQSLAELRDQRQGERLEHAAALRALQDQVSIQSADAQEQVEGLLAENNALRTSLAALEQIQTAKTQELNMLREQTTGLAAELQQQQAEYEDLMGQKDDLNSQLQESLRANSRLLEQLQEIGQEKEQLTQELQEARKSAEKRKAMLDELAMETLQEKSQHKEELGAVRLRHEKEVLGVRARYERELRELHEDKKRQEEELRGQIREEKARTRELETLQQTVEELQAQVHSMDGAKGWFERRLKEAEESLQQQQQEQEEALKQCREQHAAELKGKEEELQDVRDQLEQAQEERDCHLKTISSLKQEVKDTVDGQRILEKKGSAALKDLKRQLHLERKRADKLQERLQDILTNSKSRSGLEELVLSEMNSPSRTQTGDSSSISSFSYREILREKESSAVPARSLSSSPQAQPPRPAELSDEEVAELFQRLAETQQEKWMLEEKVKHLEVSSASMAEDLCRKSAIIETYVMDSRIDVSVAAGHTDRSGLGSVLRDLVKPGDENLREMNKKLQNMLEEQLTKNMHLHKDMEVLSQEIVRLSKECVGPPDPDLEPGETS
UniProt P78417: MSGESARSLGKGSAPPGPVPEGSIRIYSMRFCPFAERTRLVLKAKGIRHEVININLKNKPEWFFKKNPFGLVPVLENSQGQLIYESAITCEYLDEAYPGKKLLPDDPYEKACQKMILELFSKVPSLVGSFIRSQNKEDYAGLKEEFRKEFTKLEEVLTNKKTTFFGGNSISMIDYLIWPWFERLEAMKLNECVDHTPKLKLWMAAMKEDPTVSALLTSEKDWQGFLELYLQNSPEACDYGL
UniProt P35269, whole entry, looked up: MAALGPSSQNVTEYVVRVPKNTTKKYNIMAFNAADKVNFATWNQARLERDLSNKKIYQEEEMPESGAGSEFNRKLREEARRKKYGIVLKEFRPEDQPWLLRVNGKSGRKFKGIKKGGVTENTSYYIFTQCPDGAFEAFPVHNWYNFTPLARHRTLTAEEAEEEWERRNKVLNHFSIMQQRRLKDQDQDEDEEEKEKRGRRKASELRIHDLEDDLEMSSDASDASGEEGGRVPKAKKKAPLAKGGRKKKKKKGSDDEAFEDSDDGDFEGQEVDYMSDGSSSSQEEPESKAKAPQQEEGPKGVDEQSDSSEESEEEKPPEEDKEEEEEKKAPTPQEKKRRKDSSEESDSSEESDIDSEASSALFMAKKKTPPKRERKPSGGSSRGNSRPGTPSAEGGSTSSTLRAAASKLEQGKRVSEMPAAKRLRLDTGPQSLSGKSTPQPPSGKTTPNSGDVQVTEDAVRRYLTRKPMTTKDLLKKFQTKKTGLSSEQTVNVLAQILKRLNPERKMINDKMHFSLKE
UniProt Q8N442: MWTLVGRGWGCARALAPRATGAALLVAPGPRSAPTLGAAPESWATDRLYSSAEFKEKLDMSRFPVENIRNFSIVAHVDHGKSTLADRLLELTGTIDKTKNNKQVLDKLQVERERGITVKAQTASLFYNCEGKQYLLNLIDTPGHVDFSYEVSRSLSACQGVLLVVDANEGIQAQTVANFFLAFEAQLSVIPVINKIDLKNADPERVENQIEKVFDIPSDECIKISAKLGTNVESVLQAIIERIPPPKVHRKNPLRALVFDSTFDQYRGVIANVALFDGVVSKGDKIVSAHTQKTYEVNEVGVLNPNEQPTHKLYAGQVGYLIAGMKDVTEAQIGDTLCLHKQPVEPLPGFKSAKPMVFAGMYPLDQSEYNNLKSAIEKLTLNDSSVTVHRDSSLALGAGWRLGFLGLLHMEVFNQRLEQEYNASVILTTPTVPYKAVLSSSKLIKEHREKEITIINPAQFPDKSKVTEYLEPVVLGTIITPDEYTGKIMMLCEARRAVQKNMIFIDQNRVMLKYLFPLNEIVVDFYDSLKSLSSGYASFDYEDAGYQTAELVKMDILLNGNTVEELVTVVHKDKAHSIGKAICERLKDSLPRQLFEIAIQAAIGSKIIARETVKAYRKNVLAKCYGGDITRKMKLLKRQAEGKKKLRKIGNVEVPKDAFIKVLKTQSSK
UniProt P21266: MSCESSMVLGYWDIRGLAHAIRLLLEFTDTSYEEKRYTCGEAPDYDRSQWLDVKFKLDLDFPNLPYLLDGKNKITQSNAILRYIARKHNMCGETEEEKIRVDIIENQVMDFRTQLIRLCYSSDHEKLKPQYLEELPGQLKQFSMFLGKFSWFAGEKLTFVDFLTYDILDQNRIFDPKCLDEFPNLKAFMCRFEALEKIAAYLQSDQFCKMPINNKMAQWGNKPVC
UniProt Q9Y2Q3: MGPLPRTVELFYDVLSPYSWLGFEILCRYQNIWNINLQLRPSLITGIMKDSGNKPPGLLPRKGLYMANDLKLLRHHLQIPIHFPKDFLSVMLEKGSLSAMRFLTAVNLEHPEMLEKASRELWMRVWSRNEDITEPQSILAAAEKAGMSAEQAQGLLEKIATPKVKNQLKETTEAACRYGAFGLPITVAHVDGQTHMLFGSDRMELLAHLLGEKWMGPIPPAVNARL
UniProt P28161: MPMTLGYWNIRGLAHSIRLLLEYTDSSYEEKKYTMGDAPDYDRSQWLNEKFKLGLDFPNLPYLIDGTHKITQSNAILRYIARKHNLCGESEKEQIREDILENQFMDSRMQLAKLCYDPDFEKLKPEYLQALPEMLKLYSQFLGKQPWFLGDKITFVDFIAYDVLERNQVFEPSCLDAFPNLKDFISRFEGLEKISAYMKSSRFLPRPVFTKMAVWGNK
UniProt Q9Y450, whole entry, looked up: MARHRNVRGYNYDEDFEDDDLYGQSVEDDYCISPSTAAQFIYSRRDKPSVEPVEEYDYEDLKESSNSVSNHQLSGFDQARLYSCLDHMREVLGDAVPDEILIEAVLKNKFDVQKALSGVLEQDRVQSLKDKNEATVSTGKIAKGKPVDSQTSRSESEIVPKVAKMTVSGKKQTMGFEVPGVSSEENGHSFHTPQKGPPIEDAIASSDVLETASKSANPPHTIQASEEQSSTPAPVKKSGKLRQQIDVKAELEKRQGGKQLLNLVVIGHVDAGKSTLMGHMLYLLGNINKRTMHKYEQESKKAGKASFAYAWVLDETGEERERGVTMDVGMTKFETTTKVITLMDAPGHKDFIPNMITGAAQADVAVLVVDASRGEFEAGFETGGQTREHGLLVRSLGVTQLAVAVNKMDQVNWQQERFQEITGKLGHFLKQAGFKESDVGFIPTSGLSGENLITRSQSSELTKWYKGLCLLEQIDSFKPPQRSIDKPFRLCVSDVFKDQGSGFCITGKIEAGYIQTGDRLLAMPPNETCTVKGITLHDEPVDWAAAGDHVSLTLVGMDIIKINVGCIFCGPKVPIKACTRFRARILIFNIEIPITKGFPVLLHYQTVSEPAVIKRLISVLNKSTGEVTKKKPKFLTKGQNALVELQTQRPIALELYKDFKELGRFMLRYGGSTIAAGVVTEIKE
UniProt P15170, whole entry, looked up: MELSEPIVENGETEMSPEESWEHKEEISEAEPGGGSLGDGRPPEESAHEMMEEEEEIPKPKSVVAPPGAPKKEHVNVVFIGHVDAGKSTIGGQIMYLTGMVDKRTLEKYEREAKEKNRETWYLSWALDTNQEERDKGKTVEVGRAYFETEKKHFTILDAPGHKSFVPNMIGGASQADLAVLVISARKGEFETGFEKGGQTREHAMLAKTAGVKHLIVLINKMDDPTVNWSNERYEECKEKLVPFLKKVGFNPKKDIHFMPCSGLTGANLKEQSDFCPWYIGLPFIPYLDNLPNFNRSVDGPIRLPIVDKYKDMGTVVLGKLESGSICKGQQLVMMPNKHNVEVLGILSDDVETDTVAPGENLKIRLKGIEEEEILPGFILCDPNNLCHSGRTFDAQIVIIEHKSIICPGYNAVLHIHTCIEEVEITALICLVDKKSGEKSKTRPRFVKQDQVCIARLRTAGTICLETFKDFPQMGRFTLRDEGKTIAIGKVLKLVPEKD
UniProt O75791: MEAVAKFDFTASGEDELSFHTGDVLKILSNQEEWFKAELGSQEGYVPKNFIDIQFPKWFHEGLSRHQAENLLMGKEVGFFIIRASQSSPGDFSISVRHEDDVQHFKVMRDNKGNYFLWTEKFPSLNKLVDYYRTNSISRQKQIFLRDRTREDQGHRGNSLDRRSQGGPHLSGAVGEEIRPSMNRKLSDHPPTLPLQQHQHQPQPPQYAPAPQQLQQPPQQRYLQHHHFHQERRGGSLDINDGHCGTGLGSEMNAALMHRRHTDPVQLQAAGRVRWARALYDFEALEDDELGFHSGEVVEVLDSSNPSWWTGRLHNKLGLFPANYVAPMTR
UniProt P02008: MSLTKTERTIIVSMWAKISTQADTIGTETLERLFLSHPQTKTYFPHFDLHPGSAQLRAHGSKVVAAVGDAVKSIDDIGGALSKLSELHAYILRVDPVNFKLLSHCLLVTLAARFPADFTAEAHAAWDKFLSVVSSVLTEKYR
UniProt O94927: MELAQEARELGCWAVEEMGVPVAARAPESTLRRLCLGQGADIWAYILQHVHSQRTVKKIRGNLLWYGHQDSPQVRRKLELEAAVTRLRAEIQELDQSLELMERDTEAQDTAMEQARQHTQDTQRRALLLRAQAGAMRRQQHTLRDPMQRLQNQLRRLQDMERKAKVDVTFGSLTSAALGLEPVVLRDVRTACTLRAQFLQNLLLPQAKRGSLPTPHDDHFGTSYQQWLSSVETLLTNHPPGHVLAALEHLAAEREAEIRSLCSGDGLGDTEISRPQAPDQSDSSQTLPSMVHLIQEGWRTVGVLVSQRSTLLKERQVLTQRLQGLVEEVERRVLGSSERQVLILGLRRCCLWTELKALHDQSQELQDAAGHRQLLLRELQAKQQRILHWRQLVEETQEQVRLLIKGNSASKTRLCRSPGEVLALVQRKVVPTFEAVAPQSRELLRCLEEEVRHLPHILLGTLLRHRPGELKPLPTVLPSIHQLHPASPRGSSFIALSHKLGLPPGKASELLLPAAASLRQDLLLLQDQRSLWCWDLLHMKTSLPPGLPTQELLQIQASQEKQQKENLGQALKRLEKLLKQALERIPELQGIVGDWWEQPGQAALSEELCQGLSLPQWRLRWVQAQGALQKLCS

Assays:
Assay in all cases: log2 fold change, soluble protein after heating vs DMSO (PISA); higher = thermal stabilisation; K562 lysate, 10 uM; active = over 0.2 and 3.5 SD of the protein, either way, in both replicates (recomputed)
vemurafenib = compound: CCCS(=O)(=O)Nc1ccc(F)c(C(=O)c2c[nH]c3ncc(-c4ccc(Cl)cc4)cc23)c1F [vemurafenib]
How it was run: (§1)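 Log-two fold change in thermal stability relative to solvent controls is reported from duplicates. For each sample, crude K562 extract from dounce-homogenised pellets in PBS pH 7.4 with 1 mM MgCl2, at 1 mg/mL protein, was treated with 10 μM compound for 30 min. Aliquots heated for 3 min across 48°C-58°C were pooled, brought to 0.5% NP-40 at 4°C and cleared at 21,000xg for 90 min. The supernatant was quantified by TMTpro 16plex LC-MS/MS with channel sums equalised.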

[1] = compound: CCCS(=O)(=O)Nc1ccc(F)c(C(=O)c2c[nH]c3ncc(Cl)cc23)c1F
How it was run: as §1

barasertib = compound: CCN(CCCOc1ccc2c(Nc3cc(CC(=O)Nc4cccc(F)c4)[nH]n3)ncnc2c1)CCOP(=O)(O)O [barasertib]
How it was run: as §1

[2] = compound: CC[C@@H]1C(=O)N(C)c2cnc(Nc3ccc(C(=O)NC4CCN(C)CC4)cc3OC)nc2N1C1CCCC1
How it was run: as §1

volasertib = compound: CC[C@@H]1C(=O)N(C)c2cnc(Nc3ccc(C(=O)N[C@H]4CC[C@H](N5CCN(CC6CC6)CC5)CC4)cc3OC)nc2N1C(C)C [volasertib]
How it was run: as §1

[3] = compound: CCn1c(C(=O)N(C2CC2)C2CC2)cc2c3c(ncn3C)c(Nc3cc(C)n(C)n3)nc21
How it was run: as §1

[4] = compound: CCn1cc(-c2ccnc3[nH]c(-c4cccc(CN(C)C)c4)cc23)c(-c2ccc(NC(=O)N(C)C)cc2)n1
How it was run: as §1

[5] = compound: CN1CCC(CNc2ccc3ncc(-c4cccc(OC(F)(F)F)c4)n3n2)CC1
How it was run: as §1

saracatinib = compound: CN1CCN(CCOc2cc(OC3CCOCC3)c3c(Nc4c(Cl)ccc5c4OCO5)ncnc3c2)CC1 [saracatinib]
How it was run: as §1

sotrastaurin = compound: CN1CCN(c2nc(C3=C(c4c[nH]c5ccccc45)C(=O)NC3=O)c3ccccc3n2)CC1 [sotrastaurin]
How it was run: as §1

Measured: log2 fold change

GRPEL1 (UniProt Q9HAV7)
inactive: vemurafenib -0.004 | [1] -0.036 | barasertib 0.043 | [2] 0.015 | volasertib 0.012 | [3] -0.02 | [4] -0.051 | [5] 0.019 | saracatinib -0.026 | sotrastaurin -0.021

GTF2A1 (UniProt P52655)
inactive: vemurafenib -0.028 | [1] 0.01 | barasertib 0.018 | [2] 0.042 | volasertib 0.035 | [3] 0.015 | [4] 0.033 | [5] -0.042 | saracatinib -0.004 | sotrastaurin 0.024

GSR (UniProt P00390)
inactive: vemurafenib 0.027 | [1] 0.007 | barasertib -0.027 | [2] -0.014 | volasertib 0.047 | [3] 0.01 | [4] -0.171 | [5] 0.069 | saracatinib 0.015 | sotrastaurin -0.02

GSTT1 (UniProt P30711)
inactive: vemurafenib 0.075 | [1] 0.002 | barasertib 0.116 | [2] -0.028 | volasertib 0.038 | [3] 0.045 | [4] -0.061 | [5] -0.036 | saracatinib -0.045 | sotrastaurin -0.004

GTSE1 (UniProt Q9NYZ3)
inactive: vemurafenib 0.042 | [1] 0.13 | barasertib 0 | [2] 0.105 | volasertib 0.022 | [3] -0.081 | [4] -0.201 | [5] 0.001 | saracatinib 0.009 | sotrastaurin -0.028

GRIPAP1 (UniProt Q4V328)
inactive: vemurafenib 0.003 | [1] 0.009 | barasertib -0.003 | [2] 0.032 | volasertib -0.007 | [3] -0.013 | [4] 0.097 | [5] -0.053 | saracatinib 0.03 | sotrastaurin 0.014

GTF3C3 (UniProt Q9Y5Q9)
inactive: vemurafenib 0.062 | [1] 0.06 | barasertib 0.01 | [2] -0.088 | volasertib -0.014 | [3] 0.003 | [4] -0.158 | [5] 0.005 | saracatinib 0.049 | sotrastaurin -0.013

GSTO1 (UniProt P78417)
inactive: vemurafenib -0.053 | [1] -0.017 | barasertib -0.05 | [2] 0.007 | volasertib 0.025 | [3] 0.043 | [4] 0.121 | [5] -0.054 | saracatinib 0 | sotrastaurin -0.016

HDAC2 (UniProt Q92769)
inactive: vemurafenib -0.025 | [1] 0.035 | barasertib 0.009 | [2] -0.012 | volasertib -0.009 | [3] 0.002 | [4] -0.052 | [5] 0.055 | saracatinib 0.02 | sotrastaurin -0.024

GTF2F1 (UniProt P35269)
inactive: vemurafenib -0.025 | [1] 0.017 | barasertib -0.052 | [2] 0.035 | volasertib 0.024 | [3] -0.005 | [4] -0.145 | [5] 0.076 | saracatinib 0.014 | sotrastaurin -0.003

GUF1 (UniProt Q8N442)
inactive: vemurafenib 0.179 | [1] -0.144 | barasertib 0.02 | [2] -0.005 | volasertib 0.113 | [3] 0.071 | [4] 0.005 | [5] 0.054 | saracatinib 0.076 | sotrastaurin -0.007

GSE1 (UniProt Q14687)
inactive: vemurafenib -0.018 | [1] 0.035 | barasertib 0.011 | [2] -0.015 | volasertib -0.026 | [3] 0.007 | [4] -0.074 | [5] -0.009 | saracatinib 0.031 | sotrastaurin 0.049

GRK5 (UniProt P34947)
inactive: vemurafenib 0.049

GSTM3 (UniProt P21266)
inactive: vemurafenib 0.042 | [1] 0.098 | barasertib 0.075 | [2] 0 | volasertib 0.024 | [3] -0.051 | [4] 0.027 | [5] -0.057 | saracatinib 0.043 | sotrastaurin 0.023

GSTK1 (UniProt Q9Y2Q3)
inactive: vemurafenib 0.024 | [1] -0.008 | barasertib 0.079 | [2] 0.011 | volasertib 0.003 | [3] -0.004 | [4] -0.035 | [5] -0.009 | saracatinib 0.013 | sotrastaurin -0.023

Retrieved one by one from the entries so far (2):
GTSE1 (UniProt Q9NYZ3)
inactive: vemurafenib 0.042 | [1] 0.13 | barasertib 0 | [2] 0.105 | volasertib 0.022 | [3] -0.081 | [4] -0.201 | [5] 0.001 | saracatinib 0.009 | sotrastaurin -0.028

GTF2F1 (UniProt P35269)
inactive: vemurafenib -0.025 | [1] 0.017 | barasertib -0.052 | [2] 0.035 | volasertib 0.024 | [3] -0.005 | [4] -0.145 | [5] 0.076 | saracatinib 0.014 | sotrastaurin -0.003

Later entries

GSTM2 (UniProt P28161)
inactive: vemurafenib -0.005 | [1] 0.07 | barasertib 0.024 | [2] 0.015 | volasertib 0.005 | [3] -0.027 | [4] 0.131 | [5] -0.091 | saracatinib 0.003

HDAC1 (UniProt Q13547)
inactive: vemurafenib 0.01 | [1] 0.022 | barasertib -0.001 | [2] -0.004 | volasertib -0.019 | [3] 0.03 | [4] -0.036 | [5] -0.001 | saracatinib 0.014 | sotrastaurin -0.011

HDLBP, A0A024R4E5
inactive: vemurafenib 0.008 | [1] 0.024 | barasertib -0.017 | [2] 0.016 | volasertib -0.04 | [3] 0.011 | [4] -0.018 | [5] -0.008 | saracatinib -0.002 | sotrastaurin 0.004

HBS1L isoform 2 (UniProt Q9Y450)
inactive: vemurafenib 0.045 | [1] 0.004 | barasertib -0.038 | [2] 0.088 | volasertib -0.025 | [3] -0.038 | [4] -0.019 | [5] -0.022 | saracatinib -0.01 | sotrastaurin 0.005

H1-3 (UniProt P16402)
inactive: vemurafenib -0.003 | [1] -0.018 | barasertib -0.053 | [2] 0.017 | volasertib 0.013 | [3] -0.073 | [4] -0.053 | [5] 0.033 | saracatinib -0.016 | sotrastaurin 0.013

GRWD1 (UniProt Q9BQ67)
inactive: vemurafenib -0.013 | [1] 0 | barasertib -0.028 | [2] -0.006 | volasertib -0.02 | [3] -0.027 | [4] -0.075 | [5] 0.017 | saracatinib 0.001 | sotrastaurin 0.02

GSPT1 isoform 3 (UniProt P15170)
inactive: vemurafenib -0.021 | [1] 0 | barasertib -0.014 | [2] 0.032 | volasertib 0.003 | [3] 0.008 | [4] -0.019 | [5] 0.032 | saracatinib 0.007 | sotrastaurin -0.033

GRAP2 (UniProt O75791)
inactive: vemurafenib -0.017 | [1] -0.014 | barasertib -0.025 | [2] 0.026 | volasertib -0.016 | [3] -0.026 | [4] 0.017 | [5] -0.034 | saracatinib 0.062 | sotrastaurin -0.017

GTF2E2 (UniProt P29084)
inactive: vemurafenib 0.022 | [1] 0.014 | barasertib 0.066 | [2] 0.042 | volasertib -0.006 | [3] 0.031 | [4] 0.001 | [5] -0.048 | saracatinib -0.014 | sotrastaurin 0.016

GTF3C5 isoform 3 (UniProt Q9Y5Q8)
inactive: vemurafenib 0.024 | [1] 0.009 | barasertib -0.011 | [2] 0.006 | volasertib -0.018 | [3] 0.051 | [4] -0.025 | [5] 0.017 | saracatinib 0.031 | sotrastaurin -0.033

HBA1 (UniProt P69905)
inactive: vemurafenib -0.014 | [1] -0.035 | barasertib 0.102 | [2] -0.018 | volasertib 0.086 | [3] 0.03 | [4] -0.054 | [5] -0.03 | saracatinib 0.03 | sotrastaurin -0.055

HBZ (UniProt P02008)
inactive: vemurafenib 0 | [1] 0 | barasertib 0.025 | [2] -0.007 | volasertib 0.064 | [3] 0.014 | [4] -0.019 | [5] -0.076 | saracatinib -0.007 | sotrastaurin -0.036

HARS (UniProt P12081)
inactive: vemurafenib -0.024 | [1] -0.02 | barasertib -0.031 | [2] -0.049 | volasertib -0.006 | [3] 0.012 | [4] 0.023 | [5] -0.01 | saracatinib -0.021 | sotrastaurin 0.009

GRK6 isoform 2 (UniProt P43250)
inactive: vemurafenib 0.102 | [1] 0.046 | barasertib 0.042 | [2] 0.11 | volasertib 0.006 | [3] -0.032 | [4] -0.136 | saracatinib -0.056 | sotrastaurin -0.001
active: [5] 0.614

UniProt H0YHG0
inactive: vemurafenib 0.003 | [1] -0.004 | barasertib -0.066 | [2] 0.08 | volasertib 0.05 | [3] -0.039 | [4] -0.085 | [5] 0.082 | saracatinib -0.007 | sotrastaurin 0.037

HAUS5 (UniProt O94927)
inactive: vemurafenib 0.004 | [1] 0.048 | barasertib -0.02 | [2] -0.038 | volasertib -0.016 | [3] 0.026 | [4] 0.01 | [5] -0.087 | saracatinib -0.008 | sotrastaurin 0.03
